Results published in US20130210804A1, “TRICYCLIC MGLUR5 RECEPTOR MODULATORS” (priority 2010, published 2013).
Some of these results come from one statement about several compounds together.

By UniProt entry, the sequences of proteins in these tests, tags left out. Residues count along the entry.
UniProt P41594, 21-1180 isoform P41594-2 limits assumed: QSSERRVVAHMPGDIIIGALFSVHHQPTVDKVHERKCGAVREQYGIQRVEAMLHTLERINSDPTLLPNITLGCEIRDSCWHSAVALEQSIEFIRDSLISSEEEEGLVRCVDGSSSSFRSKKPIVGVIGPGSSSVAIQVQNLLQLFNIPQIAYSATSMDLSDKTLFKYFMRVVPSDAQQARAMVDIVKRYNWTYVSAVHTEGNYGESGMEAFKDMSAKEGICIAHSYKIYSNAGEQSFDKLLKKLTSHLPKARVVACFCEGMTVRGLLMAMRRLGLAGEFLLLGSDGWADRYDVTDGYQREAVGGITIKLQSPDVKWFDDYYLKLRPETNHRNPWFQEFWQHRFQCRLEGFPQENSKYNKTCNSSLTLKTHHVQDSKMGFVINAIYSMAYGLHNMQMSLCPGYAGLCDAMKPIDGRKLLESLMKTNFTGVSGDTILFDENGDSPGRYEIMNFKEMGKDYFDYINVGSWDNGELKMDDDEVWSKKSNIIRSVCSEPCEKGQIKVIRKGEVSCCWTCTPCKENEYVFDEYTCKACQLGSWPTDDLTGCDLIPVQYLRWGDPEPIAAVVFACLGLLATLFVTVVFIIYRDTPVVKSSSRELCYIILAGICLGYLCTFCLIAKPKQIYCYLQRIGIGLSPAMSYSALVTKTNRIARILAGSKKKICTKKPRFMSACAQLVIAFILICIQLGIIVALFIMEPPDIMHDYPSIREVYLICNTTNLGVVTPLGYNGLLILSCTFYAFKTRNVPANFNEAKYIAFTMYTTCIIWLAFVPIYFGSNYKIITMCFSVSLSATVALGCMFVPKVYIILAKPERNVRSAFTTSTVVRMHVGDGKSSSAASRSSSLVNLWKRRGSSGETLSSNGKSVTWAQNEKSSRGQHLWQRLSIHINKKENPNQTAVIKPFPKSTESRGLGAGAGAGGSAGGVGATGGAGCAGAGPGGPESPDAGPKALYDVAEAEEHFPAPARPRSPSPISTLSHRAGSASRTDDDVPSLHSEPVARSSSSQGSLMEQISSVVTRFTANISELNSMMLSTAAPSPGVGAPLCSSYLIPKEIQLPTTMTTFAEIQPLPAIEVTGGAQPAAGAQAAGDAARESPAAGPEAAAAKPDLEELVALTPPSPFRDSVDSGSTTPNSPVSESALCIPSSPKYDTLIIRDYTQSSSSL

molecular target: T1, human mGluR5A (Homo sapiens, UniProt P41594); experiment: FLIPR assay, cooperativity with glutamate (glutamate shift: fold left-shift of the glutamate EC50 at a single compound concentration); format: cell-based; settings: fold-shift in glutamate EC50 (glutamate+DMSO / glutamate+compound); at concentrations up to 30 μM
T1 construct: expressed in transfected cells; host or cells: CHO (Chinese Hamster Ovary) cells, kept under Puromycin and Zeocin selection

SMILES | glutamate shift
O=C1c2cnc(F)cc2CC[C@@H]2CC[C@H](c3noc(-c4ccc(F)cn4)n3)CN12 (single isomer, unassigned) [Example 24-6] | at least 4 ×
O=C1c2ccc(F)cc2CC[C@@H]2CC[C@H](c3nc(-c4cc(Cl)c[nH]4)no3)CN12 [Example 3-1, (3S,12aS)-9-Fluoro-3-[3-(4-chloro1H-pyrrol-2-yl)-1,2,4-oxadiazol-5-yl]-1,3,4,11,12,12a-hexahydropyrido[1,2-b][2]benzazepin-6(2H)-one] | at least 4 ×
O=C1c2ccc(F)cc2C(F)(F)C[C@@H]2CC[C@H](c3nc(-c4ccc(F)cn4)no3)CN12 (racemic) [Example 20-3, (±) cis-9,11,11-trifluoro-3-[3-(5-fluoropuridin-2-yl)-1,2-4-oxadiazol-5-yl]-1,3,4,11,12,12a-hexahydropyrido[1,2-b][2]benzazepin-6(2H)-one] | at least 4 ×
Cc1c[nH]c(-c2noc([C@H]3CC[C@H]4CCc5ccccc5C(=O)N4C3)n2)c1 [Example 1-5, cis-(3S,12aS)-3-(3-(4-Methyl-1H-pyrrol-2-yl)-1,2,4-oxadiazol-5-yl)-1,3,4,11,12,12a-hexahydrobenzo[e]pyrido[1,2-a]azepin-6(2H)-one] | at least 4 ×
